Source: PubChem BioAssay AID743121 (NCATS, 2013)

Purpose: 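Partners whose loss is lethal together with topoisomerase I blockade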 (primary screen)
System: MDA-MB-231 cells, a human breast cancer line
Knock-down reagent: single siRNA against human genes, 20 nM siRNA (0.8 pmol per well)
Duration: 120 h (drug added 48 h after transfection, read 72 h later)
Challenge: camptothecin 20 nM (about EC30) for 72 h; vehicle 0.1% DMSO in parallel plates
Measurement: 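CellTiter-Glo ATP signal, scaled to control siRNA as percent viability; sensitisation given as log2 of untreated divided by camptothecin-treated viability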
Scale: log2 vehicle/camptothecin viability: higher = stronger sensitisation to camptothecin; viability with camptothecin and viability without drug: higher = more viable cells
Rule for the call: 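Each gene scored by redundant siRNA activity (RSA) over its individual siRNA ratios; a gene is called active at p < 0.001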
This is one part, drawn at random, of about 26,000 deposited reagents. 167 of them (0.63%) count as active. 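Calls are per gene from RSA p-values that are not deposited; an individual active-marked siRNA can sensitise only weakly.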 Reagents against one gene are numbered here.

| gene symbol | reagent no. | log2 vehicle/camptothecin viability | viability with camptothecin (% of control) | viability without drug (% of control) | Outcome |
| --- | --- | --- | --- | --- | --- |
| MGST3 | 1 | -0.301 | 118 | 95.9 | inactive |
| MGST3 | 2 | 0.0877 | 92.2 | 98 | inactive |
| MGST3 | 3 | -0.0375 | 47.1 | 45.9 | inactive |
| MGST3 | 4 | 0.158 | 107 | 119 | inactive |
| NSG1 | 1 | 0.17 | 115 | 129 | inactive |
| NSG1 | 2 | -0.0833 | 102 | 95.8 | inactive |
| NSG1 | 3 | -0.478 | 50.9 | 36.6 | inactive |
| TGFBR2 | 1 | 0.104 | 102 | 109 | inactive |
| TGFBR2 | 2 | -0.134 | 8.33 | 7.59 | inactive |
| TGFBR2 | 3 | -0.0595 | 88.5 | 84.9 | inactive |
| TGFBR2 | 4 | -0.0199 | 100 | 99 | inactive |
| GRM8 | 1 | -0.151 | 103 | 92.9 | inactive |
| GRM8 | 2 | -0.267 | 84.7 | 70.4 | inactive |
| GRM8 | 3 | -0.504 | 83.1 | 58.6 | inactive |
| GRM8 | 4 | -0.0345 | 79 | 77.2 | inactive |
| PLXNC1 | 1 | 0.882 | 12.6 | 23.3 | inactive |
| PLXNC1 | 2 | -0.374 | 121 | 93.2 | inactive |
| PLXNC1 | 3 | 0.769 | 35.5 | 60.4 | inactive |
| ATP2A3 | 1 | 0.185 | 85.2 | 96.9 | inactive |
| ATP2A3 | 2 | 0.0196 | 85.8 | 87 | inactive |
| ATP2A3 | 3 | -0.32 | 91.7 | 73.4 | inactive |
| ATP2A3 | 4 | -0.0848 | 97 | 91.5 | inactive |
| CDC45 | 1 | -0.044 | 41.7 | 40.4 | inactive |
| CDC45 | 2 | -0.43 | 80.1 | 59.4 | inactive |
| CDC45 | 3 | -0.28 | 61.4 | 50.5 | inactive |
| CDC45 | 4 | -0.243 | 94.3 | 79.7 | inactive |
| ADCY10 | 1 | -0.196 | 123 | 108 | inactive |
| ADCY10 | 2 | 0.273 | 82 | 99.1 | inactive |
| ADCY10 | 3 | -0.447 | 61.4 | 45 | inactive |
| ADCY10 | 4 | -0.357 | 59.1 | 46.1 | inactive |
| EFNA1 | 1 | -0.145 | 74.8 | 67.7 | inactive |
| EFNA1 | 2 | -0.217 | 47.3 | 40.7 | inactive |
| EFNA1 | 3 | -0.0204 | 83.6 | 82.4 | inactive |
| SPARC | 1 | -0.322 | 88.7 | 70.9 | inactive |
| SPARC | 2 | 0.0724 | 67.9 | 71.3 | inactive |
| SPARC | 3 | -0.162 | 106 | 94.9 | inactive |
| SPARC | 4 | -0.694 | 84.1 | 52 | inactive |
| ACP4 | 1 | -0.117 | 54.7 | 50.4 | inactive |
| ACP4 | 2 | -0.0528 | 59 | 56.9 | inactive |
| ACP4 | 3 | -0.0847 | 52.2 | 49.2 | inactive |
| ACP4 | 4 | 1.81 | 20.5 | 71.6 | inactive |
| PTGES | 1 | -0.264 | 113 | 93.7 | inactive |
| PTGES | 2 | -0.000926 | 75.4 | 75.4 | inactive |
| PTGES | 3 | -0.314 | 76.5 | 61.5 | inactive |
| PTGES | 4 | 0.214 | 77.8 | 90.3 | inactive |
| FRRS1 | 1 | -0.234 | 83.5 | 71 | inactive |
| FRRS1 | 2 | -0.465 | 41.7 | 30.2 | inactive |
| FRRS1 | 3 | -0.0448 | 60.9 | 59 | inactive |
| IFNGR2 | 1 | 0.0702 | 32.6 | 34.2 | inactive |
| IFNGR2 | 2 | -0.245 | 60.2 | 50.8 | inactive |
| IFNGR2 | 3 | 0.356 | 51.1 | 65.4 | inactive |
| IFNGR2 | 4 | 0.329 | 49.4 | 62.1 | inactive |
| SEPTIN9 | 1 | -0.29 | 20 | 16.3 | inactive |
| SEPTIN9 | 2 | -0.575 | 99.5 | 66.8 | inactive |
| SEPTIN9 | 3 | -0.284 | 83.1 | 68.3 | inactive |
| SEPTIN9 | 4 | -0.314 | 110 | 88.8 | inactive |
| STOML2 | 1 | -0.275 | 61.3 | 50.6 | inactive |
| STOML2 | 2 | -0.111 | 81.3 | 75.3 | inactive |
| STOML2 | 3 | -0.0686 | 74.2 | 70.7 | inactive |
| STOML2 | 4 | -0.386 | 108 | 82.5 | inactive |
| NEURL1 | 1 | -0.471 | 24.9 | 18 | inactive |
| NEURL1 | 2 | -0.185 | 47.7 | 41.9 | inactive |
| NEURL1 | 3 | -0.148 | 94.4 | 85.2 | inactive |
| GJB6 | 1 | -0.0123 | 90.5 | 89.7 | inactive |
| GJB6 | 2 | -0.0203 | 92.8 | 91.5 | inactive |
| GJB6 | 3 | -0.962 | 82 | 42.1 | inactive |
| DRD3 | 1 | -0.261 | 47.2 | 39.4 | inactive |
| DRD3 | 2 | -0.649 | 47.8 | 30.5 | inactive |
| DRD3 | 3 | 0.14 | 78.4 | 86.4 | inactive |
| DRD3 | 4 | -0.641 | 54.4 | 34.9 | inactive |
| CXCR6 | 1 | -0.062 | 79.2 | 75.9 | inactive |
| CXCR6 | 2 | 0.0324 | 50.1 | 51.2 | inactive |
| CXCR6 | 3 | 0.21 | 67.1 | 77.6 | inactive |
| CXCR6 | 4 | -0.0422 | 40.4 | 39.2 | inactive |
| IL24 | 1 | 0.019 | 47.1 | 47.8 | inactive |
| IL24 | 2 | 0.637 | 53.3 | 82.9 | inactive |
| IL24 | 3 | -0.207 | 120 | 104 | inactive |
| IL24 | 4 | -0.00552 | 106 | 106 | inactive |
| DES | 1 | -0.64 | 99.8 | 64 | inactive |
| DES | 2 | -0.578 | 86.6 | 58 | inactive |
| DES | 3 | -0.147 | 91.8 | 82.9 | inactive |
| DES | 4 | 0.167 | 31 | 34.8 | inactive |
| SCN10A | 1 | -0.399 | 95.4 | 72.4 | inactive |
| SCN10A | 2 | 0.293 | 68.5 | 84 | inactive |
| SCN10A | 3 | 0.92 | 34.4 | 65.1 | inactive |
| SCN10A | 4 | -0.32 | 117 | 94.1 | inactive |
| PDE4A | 1 | -0.0063 | 89.6 | 89.3 | inactive |
| PDE4A | 2 | -0.162 | 77 | 68.9 | inactive |
| PDE4A | 3 | 0.64 | 12.2 | 19 | inactive |
| PDE4A | 4 | 0.132 | 101 | 110 | inactive |
